Residue numbers refer to the chain shown, from its start. Numbers in names are those of the source. No constants are given. Whether binding was seen depends on the method and setting. In cells and extracts the contact can be indirect. Some entries that bind do so weakly or less than the wild type. Tags and fused reporters may be left off the sequences shown. Blank lines part the entries; values can stand above or below the molecule they belong to.
Key:
FLAG-TECPR2 (WT) (human) = biological target: T1, FLAG-TECPR2 (WT) (human) (UniProt O15040); experiment: co-IP
T1 sequence: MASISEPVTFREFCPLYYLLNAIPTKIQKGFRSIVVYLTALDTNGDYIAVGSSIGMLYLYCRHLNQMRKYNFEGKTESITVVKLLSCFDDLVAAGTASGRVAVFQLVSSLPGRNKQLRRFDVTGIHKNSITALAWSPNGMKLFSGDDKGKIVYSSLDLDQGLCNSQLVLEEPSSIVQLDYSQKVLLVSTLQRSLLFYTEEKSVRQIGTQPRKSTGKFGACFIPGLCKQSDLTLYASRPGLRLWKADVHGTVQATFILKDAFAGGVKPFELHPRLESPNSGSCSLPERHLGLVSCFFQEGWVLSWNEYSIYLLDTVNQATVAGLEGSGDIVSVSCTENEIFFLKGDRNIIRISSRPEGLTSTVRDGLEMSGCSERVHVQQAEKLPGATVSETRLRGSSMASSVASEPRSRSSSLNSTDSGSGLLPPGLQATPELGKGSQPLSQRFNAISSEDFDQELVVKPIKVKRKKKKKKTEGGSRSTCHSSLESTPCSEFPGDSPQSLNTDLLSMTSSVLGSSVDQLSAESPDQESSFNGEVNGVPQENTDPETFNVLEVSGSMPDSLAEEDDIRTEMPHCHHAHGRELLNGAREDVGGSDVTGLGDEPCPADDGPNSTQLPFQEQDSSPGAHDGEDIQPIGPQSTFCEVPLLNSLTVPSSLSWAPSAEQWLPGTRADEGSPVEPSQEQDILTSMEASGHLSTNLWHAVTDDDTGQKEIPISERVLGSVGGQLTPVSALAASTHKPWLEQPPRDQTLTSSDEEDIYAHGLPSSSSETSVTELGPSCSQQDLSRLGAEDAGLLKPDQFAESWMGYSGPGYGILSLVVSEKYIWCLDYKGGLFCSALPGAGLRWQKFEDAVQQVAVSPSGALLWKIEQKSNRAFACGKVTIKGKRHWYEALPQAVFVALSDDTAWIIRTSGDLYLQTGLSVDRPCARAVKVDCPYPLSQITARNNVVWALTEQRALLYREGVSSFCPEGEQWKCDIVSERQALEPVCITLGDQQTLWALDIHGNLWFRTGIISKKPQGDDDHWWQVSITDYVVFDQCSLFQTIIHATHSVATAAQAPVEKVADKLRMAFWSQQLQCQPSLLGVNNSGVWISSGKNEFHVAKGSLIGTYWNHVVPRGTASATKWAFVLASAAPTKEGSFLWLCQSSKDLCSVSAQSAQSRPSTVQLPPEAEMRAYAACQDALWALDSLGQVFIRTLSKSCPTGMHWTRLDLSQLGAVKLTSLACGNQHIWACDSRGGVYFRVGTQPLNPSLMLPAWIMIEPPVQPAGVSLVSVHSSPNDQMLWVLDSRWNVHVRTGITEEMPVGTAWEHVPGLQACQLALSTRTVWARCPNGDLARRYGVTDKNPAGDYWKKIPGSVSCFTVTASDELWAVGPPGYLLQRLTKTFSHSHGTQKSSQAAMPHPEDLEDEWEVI

Protein sequences, listed by entry. Tags and fused reporters are not part of them.
UniProt Q9Y4E1: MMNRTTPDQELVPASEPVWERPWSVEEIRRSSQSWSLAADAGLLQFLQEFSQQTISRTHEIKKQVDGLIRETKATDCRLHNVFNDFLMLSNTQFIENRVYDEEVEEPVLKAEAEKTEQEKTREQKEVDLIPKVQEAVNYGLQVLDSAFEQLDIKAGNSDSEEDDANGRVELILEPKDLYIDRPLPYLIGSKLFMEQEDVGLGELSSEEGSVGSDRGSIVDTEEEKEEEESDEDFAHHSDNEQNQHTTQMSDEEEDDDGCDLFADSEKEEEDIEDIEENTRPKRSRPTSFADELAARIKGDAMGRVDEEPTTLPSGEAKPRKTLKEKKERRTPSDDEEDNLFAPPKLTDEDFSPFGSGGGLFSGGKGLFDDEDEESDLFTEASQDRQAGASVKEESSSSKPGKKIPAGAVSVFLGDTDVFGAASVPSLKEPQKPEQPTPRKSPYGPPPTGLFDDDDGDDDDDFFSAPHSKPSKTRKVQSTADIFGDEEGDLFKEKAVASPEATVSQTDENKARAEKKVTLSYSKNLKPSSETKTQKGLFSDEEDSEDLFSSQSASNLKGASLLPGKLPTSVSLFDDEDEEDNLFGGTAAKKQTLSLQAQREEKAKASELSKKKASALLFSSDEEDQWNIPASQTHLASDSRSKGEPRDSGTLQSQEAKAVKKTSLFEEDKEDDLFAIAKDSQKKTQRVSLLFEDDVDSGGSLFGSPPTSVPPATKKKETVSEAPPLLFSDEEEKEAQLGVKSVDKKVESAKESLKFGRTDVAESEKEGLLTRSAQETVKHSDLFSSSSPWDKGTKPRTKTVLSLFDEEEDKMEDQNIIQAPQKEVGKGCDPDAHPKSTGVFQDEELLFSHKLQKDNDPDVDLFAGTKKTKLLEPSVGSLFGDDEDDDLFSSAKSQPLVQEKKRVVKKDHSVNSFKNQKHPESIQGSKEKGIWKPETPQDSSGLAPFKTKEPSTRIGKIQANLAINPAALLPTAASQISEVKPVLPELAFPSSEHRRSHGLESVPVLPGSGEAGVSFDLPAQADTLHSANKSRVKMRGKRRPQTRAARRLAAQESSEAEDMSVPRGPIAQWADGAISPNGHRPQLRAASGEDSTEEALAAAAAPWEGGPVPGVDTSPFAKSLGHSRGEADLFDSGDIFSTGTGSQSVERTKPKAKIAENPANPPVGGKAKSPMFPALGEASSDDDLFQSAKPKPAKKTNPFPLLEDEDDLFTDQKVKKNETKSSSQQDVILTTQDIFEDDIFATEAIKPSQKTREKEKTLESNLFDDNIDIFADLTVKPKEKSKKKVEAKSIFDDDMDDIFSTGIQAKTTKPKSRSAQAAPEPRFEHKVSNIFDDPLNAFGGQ

[1] = biological target: T2, FLAG-TECPR2 (R1336W) (human) (UniProt O15040); experiment: co-IP
T2 sequence: T1 sequence with R1336W

GST-SNX17 = biological target: T3, GST-SNX17 (UniProt Q15036); experiment: pull-down
T3 sequence: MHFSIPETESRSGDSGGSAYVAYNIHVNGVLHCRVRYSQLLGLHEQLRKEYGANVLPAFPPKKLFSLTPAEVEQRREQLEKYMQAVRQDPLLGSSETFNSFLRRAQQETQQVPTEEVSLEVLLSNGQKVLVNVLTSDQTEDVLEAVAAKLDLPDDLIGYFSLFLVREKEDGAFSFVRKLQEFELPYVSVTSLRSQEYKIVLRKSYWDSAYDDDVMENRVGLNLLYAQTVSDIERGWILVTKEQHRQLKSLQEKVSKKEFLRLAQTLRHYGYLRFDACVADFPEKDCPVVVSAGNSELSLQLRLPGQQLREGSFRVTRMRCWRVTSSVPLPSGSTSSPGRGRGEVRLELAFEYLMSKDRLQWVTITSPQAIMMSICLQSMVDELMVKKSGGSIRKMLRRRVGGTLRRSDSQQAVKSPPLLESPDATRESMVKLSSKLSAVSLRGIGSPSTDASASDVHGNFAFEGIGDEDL

Molecule: FAM21C (from UniProt Q9Y4E1 1-1341)
binding (FLAG-TECPR2 (WT) (human)): binds
binding [1]: binds

B1: FLAG-TECPR2 (WT) (protein, UniProt O15040 1-1411)
chain: T1 sequence
binding (GST-SNX17): binds

B3: MBP-TECPR2 (935-1411 aa) (domain or fragment, UniProt O15040 935-1411)
chain: YPLSQITARNNVVWALTEQRALLYREGVSSFCPEGEQWKCDIVSERQALEPVCITLGDQQTLWALDIHGNLWFRTGIISKKPQGDDDHWWQVSITDYVVFDQCSLFQTIIHATHSVATAAQAPVEKVADKLRMAFWSQQLQCQPSLLGVNNSGVWISSGKNEFHVAKGSLIGTYWNHVVPRGTASATKWAFVLASAAPTKEGSFLWLCQSSKDLCSVSAQSAQSRPSTVQLPPEAEMRAYAACQDALWALDSLGQVFIRTLSKSCPTGMHWTRLDLSQLGAVKLTSLACGNQHIWACDSRGGVYFRVGTQPLNPSLMLPAWIMIEPPVQPAGVSLVSVHSSPNDQMLWVLDSRWNVHVRTGITEEMPVGTAWEHVPGLQACQLALSTRTVWARCPNGDLARRYGVTDKNPAGDYWKKIPGSVSCFTVTASDELWAVGPPGYLLQRLTKTFSHSHGTQKSSQAAMPHPEDLEDEWEVI
binding (GST-SNX17): binds

The next lines start with the values.

binding (GST-SNX17): binds
B2: endogenous TECPR2 (protein, UniProt O15040 1-1411)
chain: T1 sequence

binding (GST-SNX17): binds
B4: MBP-TECPR2_TECPR (R1336W) (domain or fragment, UniProt O15040 935-1411)
chain: B3 chain with R402W

From article doi:10.1101/2024.10.03.616509
